Measurements: the supplement of paper PMC7646827
Where “and” joins values, the source holds several entries; their conditions need not be identical. Equal entries are not always repeated. Repeats are few or missing, and single values can be far off.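 All cells are established human bladder cancer lines, one of them grown from a patient-derived xenograft. Viability was read by a luminescent ATP assay as percent inhibition versus vehicle over a seven-point dilution series; the paper calls scores above 59 very active, 30–59 active, 21–29 semi-active, 9–20 low active and below 9 inactive.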

Assays:
Assay in all cases: drug sensitivity score DSS3 (score 0-100); higher = more sensitive; extreme values may be limits of the assay
Conditions in all cases: culture: 3D, ultra-low attachment; treatment time: 5 days
5637 = system: 5637
BC8149 = system: BC8149
J82 = system: J82
SW780 = system: SW780
T-24 = system: T-24
TCCSUP = system: TCCSUP
UM-UC-12 = system: UM-UC-12
UM-UC-14 = system: UM-UC-14
UM-UC-15 = system: UM-UC-15
UM-UC-17 = system: UM-UC-17
UM-UC-18 = system: UM-UC-18
UM-UC-1 = system: UM-UC-1
UM-UC-3 = system: UM-UC-3
UM-UC-5 = system: UM-UC-5
UM-UC-6 = system: UM-UC-6
UM-UC-9 = system: UM-UC-9
SCaBER = system: SCaBER

C[C@@H](Oc1cc(-n2cnc3ccc(CN4CCN(C)CC4)cc32)sc1C(N)=O)c1ccccc1C(F)(F)F (max dose 10000 nM)
drug sensitivity score DSS3 5637: 40.5
drug sensitivity score DSS3 (BC8149): 30.6
drug sensitivity score DSS3 (J82): 7.64
drug sensitivity score DSS3 (SW780): 51.8
drug sensitivity score DSS3 (T-24): 2.73
drug sensitivity score DSS3 (TCCSUP): 73.1
drug sensitivity score DSS3 (UM-UC-12): 36.1
drug sensitivity score DSS3 (UM-UC-14): 40.1
drug sensitivity score DSS3 (UM-UC-15): 10.1
drug sensitivity score DSS3 (UM-UC-17): 71.1
drug sensitivity score DSS3 (UM-UC-18): 42.1
drug sensitivity score DSS3 (UM-UC-1): 37.4
drug sensitivity score DSS3 (UM-UC-3): 38.2
drug sensitivity score DSS3 (UM-UC-5): 3.91
drug sensitivity score DSS3 (UM-UC-6): 50.2
drug sensitivity score DSS3 (UM-UC-9): 47.9

c1cn2cc(-c3ccc4cn[nH]c4c3)nc(Nc3ccc(N4CCOCC4)cc3)c2n1 [Entospletinib (GS-9973)] (max dose 10000 nM)
drug sensitivity score DSS3 5637: 0.655
drug sensitivity score DSS3 (BC8149): 0
drug sensitivity score DSS3 (SW780): 0
drug sensitivity score DSS3 (T-24): 30.4
drug sensitivity score DSS3 (TCCSUP): 6.3
drug sensitivity score DSS3 (UM-UC-12): 0
drug sensitivity score DSS3 (UM-UC-14): 1.35
drug sensitivity score DSS3 (UM-UC-15): 0
drug sensitivity score DSS3 (UM-UC-17): 0.16
drug sensitivity score DSS3 (UM-UC-18): 0
drug sensitivity score DSS3 (UM-UC-3): 0
drug sensitivity score DSS3 (UM-UC-5): 0.795
drug sensitivity score DSS3 (UM-UC-9): 0

Cc1cnc(NC(=O)Nc2cc(Br)c(C)cc2OC[C@@H]2CNCCO2)cn1 (max dose 10000 nM)
drug sensitivity score DSS3 (J82): 0
drug sensitivity score DSS3 (SCaBER): 0
drug sensitivity score DSS3 (SW780): 0
drug sensitivity score DSS3 (T-24): 0
drug sensitivity score DSS3 (TCCSUP): 18.2 and 7.14
drug sensitivity score DSS3 (UM-UC-15): 0
drug sensitivity score DSS3 (UM-UC-18): 5.65 and 3.04
drug sensitivity score DSS3 (UM-UC-3): 2.72
drug sensitivity score DSS3 (UM-UC-9): 0

CC(C)n1c([C@H](C)Nc2ncnc(N)c2C#N)cc2cccc(-c3ccc(=O)n(C)c3)c2c1=O [IPI-3063] (max dose 10000 nM)
drug sensitivity score DSS3 5637: 26.5
drug sensitivity score DSS3 (BC8149): 33.3
drug sensitivity score DSS3 (J82): 17.6
drug sensitivity score DSS3 (SW780): 14
drug sensitivity score DSS3 (T-24): 0
drug sensitivity score DSS3 (TCCSUP): 15.9
drug sensitivity score DSS3 (UM-UC-14): 3.6
drug sensitivity score DSS3 (UM-UC-15): 0
drug sensitivity score DSS3 (UM-UC-17): 14.1
drug sensitivity score DSS3 (UM-UC-1): 22.1
drug sensitivity score DSS3 (UM-UC-3): 28
drug sensitivity score DSS3 (UM-UC-5): 8.31
drug sensitivity score DSS3 (UM-UC-6): 19.8
drug sensitivity score DSS3 (UM-UC-9): 4.64

CNC(=O)c1ccccc1Sc1ccc2c(/C=C/c3ccccn3)n[nH]c2c1 [Axitinib] (max dose 10000 nM)
drug sensitivity score DSS3 5637: 2.69
drug sensitivity score DSS3 (BC8149): 0
drug sensitivity score DSS3 (SW780): 0
drug sensitivity score DSS3 (T-24): 0.0226
drug sensitivity score DSS3 (TCCSUP): 8.87
drug sensitivity score DSS3 (UM-UC-14): 0.955
drug sensitivity score DSS3 (UM-UC-15): 0
drug sensitivity score DSS3 (UM-UC-17): 0
drug sensitivity score DSS3 (UM-UC-18): 0.00454
drug sensitivity score DSS3 (UM-UC-1): 2.1
drug sensitivity score DSS3 (UM-UC-3): 0
drug sensitivity score DSS3 (UM-UC-5): 0
drug sensitivity score DSS3 (UM-UC-6): 2.12
drug sensitivity score DSS3 (UM-UC-9): 0

CNC(=O)c1cc(COc2nnc(Nc3ccc(Cl)cc3)c3ccoc23)ccn1 [Telatinib] (max dose 10000 nM)
drug sensitivity score DSS3 5637: 8.65
drug sensitivity score DSS3 (BC8149): 4.48
drug sensitivity score DSS3 (SW780): 0
drug sensitivity score DSS3 (T-24): 0
drug sensitivity score DSS3 (TCCSUP): 4.27
drug sensitivity score DSS3 (UM-UC-12): 1.13
drug sensitivity score DSS3 (UM-UC-14): 0
drug sensitivity score DSS3 (UM-UC-15): 0.111
drug sensitivity score DSS3 (UM-UC-17): 1.5
drug sensitivity score DSS3 (UM-UC-18): 5.13
drug sensitivity score DSS3 (UM-UC-1): 0.106
drug sensitivity score DSS3 (UM-UC-3): 21.7
drug sensitivity score DSS3 (UM-UC-5): 2.84
drug sensitivity score DSS3 (UM-UC-6): 1.38
drug sensitivity score DSS3 (UM-UC-9): 0

O=C(CCc1ccc(O)cc1)c1c(O)cc(O)cc1O [Phloretin] (max dose 10000 nM)
drug sensitivity score DSS3 5637: 0
drug sensitivity score DSS3 (BC8149): 0
drug sensitivity score DSS3 (J82): 0
drug sensitivity score DSS3 (SW780): 0
drug sensitivity score DSS3 (T-24): 0
drug sensitivity score DSS3 (TCCSUP): 0
drug sensitivity score DSS3 (UM-UC-12): 0
drug sensitivity score DSS3 (UM-UC-14): 0
drug sensitivity score DSS3 (UM-UC-15): 0
drug sensitivity score DSS3 (UM-UC-17): 0
drug sensitivity score DSS3 (UM-UC-18): 0
drug sensitivity score DSS3 (UM-UC-1): 0
drug sensitivity score DSS3 (UM-UC-3): 0
drug sensitivity score DSS3 (UM-UC-5): 0
drug sensitivity score DSS3 (UM-UC-6): 0
drug sensitivity score DSS3 (UM-UC-9): 0
